Laboratory results published in publication PMC7753211.
Results are given in words; binding and its absence hold for the method and conditions named. Binding seen in cells or lysates may run through a third protein. Some results given as binding are weak or reduced against the parent protein; the word gives no strength.

Protein sequences, listed by entry. Tags and fused reporters are not part of them.
UniProt Q16665: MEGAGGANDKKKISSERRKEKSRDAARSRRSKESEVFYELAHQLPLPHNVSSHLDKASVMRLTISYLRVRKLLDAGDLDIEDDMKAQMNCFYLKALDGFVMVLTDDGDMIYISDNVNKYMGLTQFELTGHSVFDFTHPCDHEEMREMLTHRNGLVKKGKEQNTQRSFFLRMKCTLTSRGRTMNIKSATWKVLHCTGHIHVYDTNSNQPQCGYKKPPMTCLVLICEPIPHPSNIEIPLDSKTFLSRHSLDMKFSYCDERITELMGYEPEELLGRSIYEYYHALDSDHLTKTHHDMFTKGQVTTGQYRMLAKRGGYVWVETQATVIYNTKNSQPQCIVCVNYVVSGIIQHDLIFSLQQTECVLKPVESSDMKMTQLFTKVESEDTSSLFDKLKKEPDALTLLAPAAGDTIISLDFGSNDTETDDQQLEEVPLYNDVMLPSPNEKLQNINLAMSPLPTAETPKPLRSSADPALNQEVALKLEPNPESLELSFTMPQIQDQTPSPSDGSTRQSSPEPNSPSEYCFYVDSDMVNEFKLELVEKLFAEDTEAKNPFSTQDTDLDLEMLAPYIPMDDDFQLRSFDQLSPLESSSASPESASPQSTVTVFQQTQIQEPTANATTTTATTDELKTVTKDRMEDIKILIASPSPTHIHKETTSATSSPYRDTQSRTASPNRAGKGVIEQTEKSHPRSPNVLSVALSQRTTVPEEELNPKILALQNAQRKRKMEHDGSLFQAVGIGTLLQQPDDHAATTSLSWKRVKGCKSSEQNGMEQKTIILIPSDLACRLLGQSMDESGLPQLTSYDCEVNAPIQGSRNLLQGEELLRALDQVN
UniProt Q9NYF8: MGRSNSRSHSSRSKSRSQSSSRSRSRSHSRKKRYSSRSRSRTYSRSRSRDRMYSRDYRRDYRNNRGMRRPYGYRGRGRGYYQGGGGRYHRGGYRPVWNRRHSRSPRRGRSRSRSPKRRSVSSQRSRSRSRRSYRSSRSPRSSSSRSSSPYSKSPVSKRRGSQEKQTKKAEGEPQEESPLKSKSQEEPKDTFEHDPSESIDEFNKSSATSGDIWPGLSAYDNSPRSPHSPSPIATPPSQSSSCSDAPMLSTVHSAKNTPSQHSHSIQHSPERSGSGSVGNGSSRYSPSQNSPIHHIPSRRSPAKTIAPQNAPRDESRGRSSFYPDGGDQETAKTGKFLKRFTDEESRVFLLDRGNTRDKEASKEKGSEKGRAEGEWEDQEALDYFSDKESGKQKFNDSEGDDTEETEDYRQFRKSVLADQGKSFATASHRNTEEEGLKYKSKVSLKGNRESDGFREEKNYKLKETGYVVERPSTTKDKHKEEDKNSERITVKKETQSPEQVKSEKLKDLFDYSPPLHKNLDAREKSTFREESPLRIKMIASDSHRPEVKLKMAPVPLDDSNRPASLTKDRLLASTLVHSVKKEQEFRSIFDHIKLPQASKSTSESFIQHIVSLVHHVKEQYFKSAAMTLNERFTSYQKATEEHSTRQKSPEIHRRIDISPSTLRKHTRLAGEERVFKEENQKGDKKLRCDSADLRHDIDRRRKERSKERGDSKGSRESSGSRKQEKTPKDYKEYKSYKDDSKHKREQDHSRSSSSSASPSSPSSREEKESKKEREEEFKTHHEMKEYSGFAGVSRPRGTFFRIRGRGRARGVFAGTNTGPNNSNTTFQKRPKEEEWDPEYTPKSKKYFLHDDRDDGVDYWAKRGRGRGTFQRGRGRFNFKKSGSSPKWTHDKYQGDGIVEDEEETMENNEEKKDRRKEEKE

Target: hypoxia-inducible factor-1α (human (endogenous in Bel-7404 and Huh7)) (UniProt Q16665)
Experiment: co-IP; lysates of Bel-7404 and Huh7 cells kept under hypoxia (1% O2) and treated with CK (20, 40, 60 µM) for 48 h; lysis buffer 50 mM Tris-HCl pH 7.5, 150 mM NaCl, 1% Nonidet P-40, 0.5% sodium deoxycholate; antibodies with Protein G Plus/Protein A agarose beads, 4°C overnight; western blot

- binding: binds
Substance: Bcl-2-associated transcription factor 1 (from UniProt Q9NYF8 1-920)
